Results: US20230167188A1
No constants are given. Whether binding was seen depends on the method and setting. Some entries that bind do so weakly or less than the wild type.

Chains of the proteins cited; added tags and fusions are not shown. Residues count along the entry.
UniProt P20333, residues 23-257: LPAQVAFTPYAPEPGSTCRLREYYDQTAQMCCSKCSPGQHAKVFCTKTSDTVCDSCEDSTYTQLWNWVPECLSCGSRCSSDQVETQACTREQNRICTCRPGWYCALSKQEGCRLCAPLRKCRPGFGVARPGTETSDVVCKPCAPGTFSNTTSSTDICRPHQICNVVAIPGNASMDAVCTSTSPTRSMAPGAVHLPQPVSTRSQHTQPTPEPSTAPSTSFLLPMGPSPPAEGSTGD

Biological target: TNFR2-His-Fc (UniProt P20333)
Assay: ELISA, IgG coated, 100 nM TNFR2-His-Fc, anti His-HRP

B1: BDG30.114 (antibody, human IgG1, kappa, L234A L235A, V domains shown)
VH: EVQLVQSGPELKKPGASVKVSCKGSGYTFTDLGMNWVRQAPGQGLEWMGWINTQTGEPFYADDFKGRFVFSLDTSVSTAYLQISSLKAEDTAVYFCARDHPLGLDYWGQGTLVTVSS
VL: DIQVTQSPSSLSASVGDRVTITCITSQSVDVNGVSYLNWYQQKPGKVPKFLIYKASILRSGVPSRFSGSGSGTDFTLTISSLQPEDVATYYCQQSREDPYTFGQGTKVEIKR
binding: binds
